Measured data: PubChem BioAssay AID686937 (Drosophila RNAi Screening Center, 2013)

- Assay: 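Knock-downs that reduce output of a secreted reporter enzyme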 (primary screen)
- System: Drosophila S2 cells expressing secreted horseradish peroxidase
- Reagent: long dsRNA against Drosophila genes
- Timing: about 5.5 days (5 days dsRNA, then 12 h reporter induction)
- Challenge: reporter expression induced after 5 days of dsRNA, read 12 h later; inducer not stated
- Detection: 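After 5 days of dsRNA and 12 h of reporter induction, medium peroxidase read by chemiluminescence and scored as per-plate z-score; higher values mean more reporter released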
- Direction: z-score: higher = more reporter secreted into medium
The deposit covers about 23,000 reagents; this is an unselected part of those with a known target gene and a result. 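Reduced-secretion tags in replicate 1 do not always agree with the z-scores; no criterion for assigning the tags was given.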 A plus sign joins genes that one reagent is predicted to hit. Not stated in the record: the amount of reagent.

gene knocked down	DRSC id	z-score, replicate 1	z-score, replicate 2	z-score, replicate 3	z-score, replicate 4	phenotype, replicate 1
CG9254	DRSC01969	0.78	0.44			
CG18557	DRSC00524	0.12	0			
CG4570	DRSC15602	0.25	0.33			
Or63a (Odorant receptor 63a)	DRSC08681	0.5	0.39			
ndl (nudel)	DRSC11374	0.32	0.3			
Syt1 (Synaptotagmin 1)	DRSC00156	0.21	0.31			
Syt1 (Synaptotagmin 1)	DRSC00157	0.55	0.38	0.43	0.68	
Syt1 (Synaptotagmin 1)	DRSC00158	0.26	0.15			
Syt1 (Synaptotagmin 1)	DRSC00840	0.02	0.22			
Syt1 (Synaptotagmin 1)	DRSC22077	-0.3	0.26			
CG13159	DRSC06283	0.48	0.47	-0.07	0.31	
Cyp6a19 (Cytochrome P450 6a19)	DRSC07379	0.23	0.34			
CG3649	DRSC04400	0.3	0.43			
CG34447	DRSC00741	0.1	0.05			
rush (rush hour)	DRSC18568	0.17	0.11			
CG13999	DRSC02331	0.13	0.2			
CG34276	DRSC15811	0.37	0.46			
betaNACtes3 (Nascent-associated complex beta-subunit-like, testis 3)	DRSC20183	0.33	0.35			
CG10184	DRSC14204	0.21	0.38			
CG9143	DRSC07338	0.24	0.3			
Rim2 (Replication in mitochondria 2)	DRSC00073	0.41	0			
Rim2 (Replication in mitochondria 2)	DRSC00520	0.3	0.13			
Rim2 (Replication in mitochondria 2)	DRSC22699	-0.84	-0.33			
DIP-gamma (Dpr-interacting protein gamma)	DRSC14873	0.39	0.57			
AGBE (1,4-Alpha-Glucan Branching Enzyme)	DRSC06861	0.4	0.26			
insv (insensitive)	DRSC00579	0.09	0.14			
put (punt)	DRSC17039	0.03	0.22			
puml (pummelig)	DRSC06793	0.4	0.39			
RpS29 + snoRNA:Psi18S-1275	DRSC16433	-3.05	-0.36			reduced secretion
lsn (larsen)	DRSC16081	-0.04	0.13			
casp (caspar)	DRSC07164	-0.05	0.13			
Leash	DRSC15617	0.04	0.36			
CG11409	DRSC18579	0.08	0.33			
CG46298	DRSC06222	-0.78	-0.35			
CG3045	DRSC04331	0.25	0.41			
yin	DRSC18854	-0.02	-0.15			
yin	DRSC21889	0.37	0.55			
sotv + CG10731	DRSC05930	0.39	0.42			
sotv + CG10731	DRSC05997	0.36	0.01			
SkpA (SKP1-related A)	DRSC18833	0.25	0.01			
CG6614	DRSC02974	-6.72	0.25			reduced secretion
BobA	DRSC09889	0.08	0.06			
Atg10 + CG18853 + CG12822	DRSC20757	1.22	0.71			
Khc (Kinesin heavy chain)	DRSC07448	0.24	0.2			
FoxL1 (Forkhead box L1)	DRSC08717	0.24	0.07			
HDAC6 (Histone deacetylase 6)	DRSC20252	0.26	0.66			
Gli (Gliotactin)	DRSC03332	-0.04	0.27			
CG17065	DRSC20544	0.29	0.54			
Jhbp14 (Juvenile hormone binding protein 14)	DRSC01988	0.4	0.37			
Pos (Poseidon)	DRSC15415	0.33	0.21			
Ge-1	DRSC02938	0.7	0.45			
Eig71Ef (Ecdysone-induced gene 71Ef)	DRSC11153	0.61	0.46			
CG14355	DRSC14818	0.33	0.32			

Entries above whose gene name begins with Y or y:
gene knocked down	DRSC id	z-score, replicate 1	z-score, replicate 2	z-score, replicate 3	z-score, replicate 4	phenotype, replicate 1
yin	DRSC18854	-0.02	-0.15			
yin	DRSC21889	0.37	0.55			

The results go on.
gene knocked down	DRSC id	z-score, replicate 1	z-score, replicate 2	z-score, replicate 3	z-score, replicate 4	phenotype, replicate 1
CG12321	DRSC14499	0.26	0.36			
flr (flare)	DRSC09787	0.22	0.33			
CG7231	DRSC03034	0.35	0.29			
TH1	DRSC20289	0.69	0.6			
mRpL37 (mitochondrial ribosomal protein L37)	DRSC16062	0.07	-0.06			
Ir7e (Ionotropic receptor 7e)	DRSC18011	-1.04	0.13			
Prosbeta5R2 (Proteasome beta5 subunit-related 2)	DRSC01617	-0.55	-0.13			
ppk18 (pickpocket 18)	DRSC02216	0.4	0.17			
ppk18 (pickpocket 18)	DRSC02217	0.13	-0.15			
CG33107	DRSC21898	0.22	0.4			
Taf9 (TBP-associated factor 9)	DRSC20326	0.25	0.41			
Oseg2 (Outer segment 2)	DRSC08343	0.46	0.34			
PIG-Wa (Phosphatidylinositol glycan anchor biosynthesis class W a)	DRSC00728	0.32	0.27			
CG2938	DRSC18243	0.45	0.3			
CG13044	DRSC09925	-0.02	0.38			
CG42237	DRSC19891	0.48	0.61			
ppk9 (pickpocket 9)	DRSC04134	-0.14	0.3			
ppk9 (pickpocket 9)	DRSC04135	-0.02	0.43			
CDase (Ceramidase)	DRSC14932	0.09	0.04			
CG34235 + CG30058 + CG34312	DRSC22142	-0.17	0.39			
corto	DRSC12040	-0.24	0			
corto	DRSC12375	0.06	0.44			
corto	DRSC22279	-1.01	0.11			
CG8301	DRSC16405	0.29	0.52			
tko (technical knockout)	DRSC18844	0.08	-0.65			
CG31804	DRSC22728	-0.01	-0.06			
E(spl)malpha-BFM (Enhancer of split malpha, Bearded family member)	DRSC16994	-0.3	-0.22			
CG16717	DRSC10221	0.29	0.44			
Trxr2 (Thioredoxin reductase 2)	DRSC11900	-2.39	0.4			
